Results are given in words; binding and its absence hold for the method and conditions named. In cells and extracts the contact can be indirect. Some entries that bind do so weakly or less than the wild type.
Biological target: Sox2 (mouse (endogenous in SVZ NPCs)) (UniProt P48432)
Assay: co-IP; lysates (200-300 µg) of SVZ NPCs differentiated for 7 days without (PBS) or with metformin (1 µM), incubated with 6 µg anti-Sox2 antibody and protein A magnetic beads at 4 °C overnight; beads rinsed 3 times with lysis buffer (25 mM Tris pH 7.4, 10 mM NaCl, 2 mM EDTA, 1 mM EGTA, 0.5% Triton-100, 10% glycerol); blotted with CBP and Sox2 antibodies

Amino acid sequences for entries named in this document (tags omitted).
UniProt P48432: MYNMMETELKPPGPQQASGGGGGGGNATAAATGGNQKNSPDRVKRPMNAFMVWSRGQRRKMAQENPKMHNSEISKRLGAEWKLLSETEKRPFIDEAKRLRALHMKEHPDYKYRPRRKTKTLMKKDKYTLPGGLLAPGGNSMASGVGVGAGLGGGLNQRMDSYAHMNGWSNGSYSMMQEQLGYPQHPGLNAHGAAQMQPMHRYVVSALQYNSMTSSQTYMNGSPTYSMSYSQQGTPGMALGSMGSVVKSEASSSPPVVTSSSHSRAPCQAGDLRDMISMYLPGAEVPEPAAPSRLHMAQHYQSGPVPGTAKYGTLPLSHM
UniProt P45481: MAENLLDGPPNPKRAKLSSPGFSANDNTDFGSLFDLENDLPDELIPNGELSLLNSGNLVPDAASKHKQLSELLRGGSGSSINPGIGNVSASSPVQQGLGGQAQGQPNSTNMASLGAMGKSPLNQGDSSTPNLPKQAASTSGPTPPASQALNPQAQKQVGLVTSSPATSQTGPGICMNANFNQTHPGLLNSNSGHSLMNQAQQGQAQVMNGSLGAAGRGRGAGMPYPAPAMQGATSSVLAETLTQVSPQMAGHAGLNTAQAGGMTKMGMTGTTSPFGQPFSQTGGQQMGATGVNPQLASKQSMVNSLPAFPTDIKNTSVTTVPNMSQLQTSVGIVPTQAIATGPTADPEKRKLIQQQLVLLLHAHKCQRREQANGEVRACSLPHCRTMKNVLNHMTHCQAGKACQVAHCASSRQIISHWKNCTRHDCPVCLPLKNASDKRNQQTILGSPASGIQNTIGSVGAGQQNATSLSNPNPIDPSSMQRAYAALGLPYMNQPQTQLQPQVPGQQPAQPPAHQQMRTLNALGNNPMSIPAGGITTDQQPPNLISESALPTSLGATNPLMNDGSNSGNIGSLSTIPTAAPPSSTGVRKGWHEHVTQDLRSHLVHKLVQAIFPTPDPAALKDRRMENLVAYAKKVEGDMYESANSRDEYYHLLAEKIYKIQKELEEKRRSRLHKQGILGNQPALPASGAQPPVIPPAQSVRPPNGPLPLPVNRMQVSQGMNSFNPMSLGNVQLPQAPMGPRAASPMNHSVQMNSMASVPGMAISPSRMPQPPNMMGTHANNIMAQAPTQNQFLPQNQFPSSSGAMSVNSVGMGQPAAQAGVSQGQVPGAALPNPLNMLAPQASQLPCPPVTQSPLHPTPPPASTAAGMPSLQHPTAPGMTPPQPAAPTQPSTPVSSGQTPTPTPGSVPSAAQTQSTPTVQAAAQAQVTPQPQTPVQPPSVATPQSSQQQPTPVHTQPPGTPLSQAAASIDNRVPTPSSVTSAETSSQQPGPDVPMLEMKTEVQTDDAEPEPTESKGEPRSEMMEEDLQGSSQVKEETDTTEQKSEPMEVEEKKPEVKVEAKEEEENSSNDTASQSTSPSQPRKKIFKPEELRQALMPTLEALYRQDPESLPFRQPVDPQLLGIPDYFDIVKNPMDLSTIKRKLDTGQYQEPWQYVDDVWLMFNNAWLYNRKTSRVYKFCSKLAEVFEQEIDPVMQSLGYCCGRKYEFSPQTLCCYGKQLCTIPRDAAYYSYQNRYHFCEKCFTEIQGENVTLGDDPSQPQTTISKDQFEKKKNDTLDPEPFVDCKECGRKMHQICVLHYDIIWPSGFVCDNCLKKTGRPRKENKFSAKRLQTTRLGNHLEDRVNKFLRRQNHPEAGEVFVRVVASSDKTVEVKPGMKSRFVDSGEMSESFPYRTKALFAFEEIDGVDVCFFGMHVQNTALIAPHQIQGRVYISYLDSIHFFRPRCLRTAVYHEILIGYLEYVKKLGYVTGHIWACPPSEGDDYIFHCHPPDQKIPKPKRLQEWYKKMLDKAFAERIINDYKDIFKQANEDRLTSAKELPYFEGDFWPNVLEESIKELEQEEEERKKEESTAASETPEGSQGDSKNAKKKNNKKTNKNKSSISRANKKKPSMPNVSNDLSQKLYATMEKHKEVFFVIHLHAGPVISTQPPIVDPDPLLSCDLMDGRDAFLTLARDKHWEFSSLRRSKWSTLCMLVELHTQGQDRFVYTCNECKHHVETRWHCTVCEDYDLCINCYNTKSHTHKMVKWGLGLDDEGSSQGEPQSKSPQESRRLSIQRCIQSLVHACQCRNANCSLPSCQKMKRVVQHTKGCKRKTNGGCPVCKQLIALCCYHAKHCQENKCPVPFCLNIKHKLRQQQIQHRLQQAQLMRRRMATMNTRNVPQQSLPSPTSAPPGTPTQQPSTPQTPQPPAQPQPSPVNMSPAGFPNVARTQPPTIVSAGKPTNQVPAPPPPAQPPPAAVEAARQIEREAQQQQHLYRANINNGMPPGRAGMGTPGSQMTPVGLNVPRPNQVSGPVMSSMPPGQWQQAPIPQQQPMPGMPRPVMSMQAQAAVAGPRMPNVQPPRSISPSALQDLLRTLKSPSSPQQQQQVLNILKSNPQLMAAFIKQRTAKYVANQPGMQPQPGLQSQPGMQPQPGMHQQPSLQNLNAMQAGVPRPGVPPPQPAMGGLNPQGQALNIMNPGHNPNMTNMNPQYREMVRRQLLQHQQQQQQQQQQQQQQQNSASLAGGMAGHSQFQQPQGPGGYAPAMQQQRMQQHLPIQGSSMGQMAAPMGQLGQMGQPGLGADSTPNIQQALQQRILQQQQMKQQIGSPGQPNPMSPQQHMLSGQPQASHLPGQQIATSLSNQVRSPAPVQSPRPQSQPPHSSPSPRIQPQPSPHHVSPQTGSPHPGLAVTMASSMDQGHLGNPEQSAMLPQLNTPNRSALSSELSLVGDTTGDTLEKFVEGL

With “CREB-binding protein (CBP) (from UniProt P45481 1-2441)” the binding was “binds”.
